Measured values taken from patent US20230218654A1, “COMPOSITIONS AND METHODS FOR TREATING HYPERGLYCEMIA IN TYPE-2 DIABETES” (The Board of Regents of the university of Oklahoma, priority 2020, published 2023).

Legend:
[1] = test system: male C57BL/6J mice fed C or WD; assay: Intervention study: MLN4924 initiated after 8 weeks of WD feeding; type: in vivo; settings: WD 16 weeks; 60 mg/kg SQ every other day for last 8 weeks
Method: MLN4924 (60 mg/kg, SQ) was given every other day for the last 8 weeks of the 16-week feeding. For both cohorts, body weight was measured weekly. Results are mean ±SEM. n=5-7. “*”, vs C+Veh; “#”, vs. WD+Veh, p<0.05. ns= Not significant.
Male C57BL/6J mice were fed chow or WD for 16 weeks. Vehicle or MLN4924 treatment (60 mg/kg, SQ, once every two days) was initiated after 8 weeks of WD feeding. Analyses were performed after 16 weeks of feeding. Results are mean ± SEM. n=5-8. “*”, vs C+Veh; “#”, vs. WD+Veh, p<0.05. Normalized densitometry was shown in low panel bar graphs.
Male C57BL/6J mice were purchased from the Jackson Laboratory (Bar Harbor, ME). Mice were fed a regular chow (C) diet or a Western diet (WD) that contains 42% fat calories and 0.2% cholesterol content (TD. 88137, Envigo Inc. Indianapolis, IN).
MLN4924 and TAS4464 were purchased from MedChemExpress (MCE, Monmouth Junction, NJ). For cell treatment, MLN4924 and TAS4464 were dissolved in DMSO. Cells were serum starved overnight and then treated with MLN4924, TAS4464 and/or insulin as indicated. For injection in mice, MLN4924 and TAS4464 were first dissolved in DMSO, which was further suspended in 10% (2-hydroxypropyl)-β-cyclodextrin (Sigma, St. Louis, MO). The final solution contains 1% DMSO. The subcutaneous injection volume is 200 µl/mouse.
Lipids were extracted in a mixture of chloroform: methanol (2:1; v: v), dried under nitrogen, and resuspended in isopropanol containing 1% triton X-100. Total cholesterol, free cholesterol and TG were measured with assay kits following the manufacturer’s instruction. Total cholesterol assay kit and TG assay kit were purchased from Pointe Scientific (Canton, MI).
Aspartate aminotransferase (AST) and alanine aminotransferase (ALT) assay kits were purchased from Pointe Scientific (Canton, MI). Free fatty acid assay kit was purchased from Biovision Inc. (Milpitas, CA). Insulin ELISA kit was purchased from Crystal Chem Inc. (Elk Grove Village, IL).
Next investigated was the glucose lowering effect of CRL inhibition in mice rendered obese and insulin resistant by 16-weeks of WD feeding. […] Next conducted was an intervention study in which MLN4924 treatment was initiated after mice were fed WD for 8 weeks that rendered mice obese and insulin resistant. […] In summary, robust evidence is provided herein that pharmacological CRL inhibition is an effective approach to lowering hyperglycemia.

[2] = test system: male C57BL/6J mice fed Chow or Western diet; assay: MLN4924 intervention for 9 weeks in 16-week WD-fed mice (Experimental II); type: in vivo
Method: Chronic MLN4924 treatment attenuates hepatic steatosis in Western diet-fed mice. Male C57BL/6J mice were fed Chow (C) or Western diet (WD) for 16 weeks. MLN4924 treatment (60 mg/kg, SQ, every other day) was initiated after mice were fed WD for 7 weeks as indicated. Control mice were injected with vehicle. After 16 weeks of feeding, mice were fasted from 9 am to 3 pm and euthanized. Scale bar = 125 µm. […]
WT male C57BL/6J mice were purchased from the Jackson Lab (Bar Harbor, ME). Western diet (TD. 88137, Envigo Inc. Indianapolis, IN) contains 42% fat calories and 0.2% cholesterol. Mice were housed in micro-isolator cages with corn cob bedding under 7 am - 7 pm light cycle and 7 pm -7 am dark cycle. MLN4924 was prepared in 10% 2-hydroxypropyl-b-cyclodextrin to a final concentration of 3 mg/ml. All mice were fasted for 6 h from 9 am to 3 pm before euthanasia. All animals received humane care according to the criteria outlined in the “Guide for the Care and Use of Laboratory Animals.” All animal protocols were approved by the Institutional Animal Care and Use Committee at the University of Kansas Medical Center and the University of Oklahoma Health Sciences Center. […]
Human normal livers (less than 5% steatosis) and histologically confirmed NASH livers were obtained from either the University of Kansas Liver Center or the Liver Tissue Cell Distribution System (LTCDS) at the University of Minnesota. Human and mouse tissue samples were homogenized in 1XRIPA buffer containing 1% SDS and protease inhibitors. After incubation on ice for 1 hour, the samples were centrifugation and supernatant was transferred to a new tube. The protein lysate was mixed with equal volume of 2X laemmli buffer and incubated at 95° C. for 5 minutes and used for SDS-PAGE and immunoblotting. ImageJ software (NIH) was used to determine band intensity.
Total liver RNA was purified with Trizol (Sigma-Aldrich, St. Louis, MO). […] The relative mRNA expression was expressed as 2 ^-ΔΔCt with the control group arbitrarily set as “1”. […]

`NS(=O)(=O)OC[C@@H]1C[C@@H](n2ccc3c(N[C@H]4CCc5ccccc54)ncnc32)C[C@@H]1O` [MLN4924, ((1S,2S,4R)-4-(4-((1S)-2,3-dihydro-1H-inden-1-ylamino)-7H-pyrrolo[2,3-d]pyrimidin-7-yl)-2-hydroxycyclopentyl) methyl sulfamate] was tested, and the “adiposity as reflected by gonadal fat” value [1] was “did not affect”, the liver glycogen [1] was “did not affect” and the “obesity (body weight)” value [1] was “did not affect”. For the same compound, the serum fatty acids [1] was “did not affect”, the diet-induced obesity ([2]; SQ 60 mg/kg once every 2 days) was “did not affect diet-induced obesity” and the “adiposity (gonadal fat pad weight)” value ([2]; WD-fed mice) was “does not affect adiposity”. For the same compound, the “circulating (serum free) fatty acids” value ([2]; WD-fed mice) was “does not affect circulating fatty acids”.
